# The list shows a part of the results. The main result of the screen is listed elsewhere. These columns were measured beside it and carry no call. Compounds called inactive in the main read-out are mostly missing here. Potencies come from curve fits of mixed quality, noted in brackets.
# Experiment: qHTS Assay for Lipid Storage Modulators in Drosophila S3 Cells;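 for cell number change: cells counted by Cell Tracker Red CMTPX staining in the red channel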
# Conditions: BODIPY lipid droplet fluorescence, 18-24 h; for cell number change: measured here: cell count max response, cells fed with added oleic acid
# How it was run: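 Laser-scanning cytometry quantifies lipid droplet accumulation (500–530 nm total intensity; droplet/cell object ratio) in oleic acid-fed (400 uM added) Drosophila S3 cells treated with a concentration series. 20 uM Triacsin C defined 100% inhibition.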
# [1] = measured here: cell number channel AC50, cells fed with added oleic acid
# [2] = measured here: lipid fluorescence (Fed channel) AC50, cells fed with added oleic acid
structure (smiles),measurement,setting,value
COc1ccc(/C=N/NC(=O)c2cccc([N+](=O)[O-])c2)cc1OS(=O)(=O)c1ccccc1,cell number change,,-57%
same,AC50,[1],"29.1 µM [falling, single point]"
same,AC50,[2],"29.1 µM [falling, single point]"
Cc1onc(-c2ccccc2)c1C(=O)Nc1ccc(-c2nnc3n2CCCCC3)cc1,cell number change,,-8.47%
Cc1ccc(C(=O)Nc2ccc(-c3csc(C)n3)cc2)cc1,cell number change,,14.6%
same,AC50,[2],"7.31 µM [rising, partial curve]"
CN1/C(=C\C(=O)COC(=O)c2ccccc2O)C(C)(C)c2ccccc21,cell number change,,-37.1%
same,AC50,[1],"29.1 µM [falling, single point]"
same,AC50,[2],"29.1 µM [falling, single point]"
CN(CC(=O)O)S(=O)(=O)c1ccc2oc3ccccc3c2c1,cell number change,,-9.39%
same,AC50,[2],"0.58 µM [falling, single point]"
CC(C)(C)C(=O)NC1CC2CCCC(C1)N2C(=O)Nc1cccc(Cl)c1 (stereo unspecified),cell number change,,-30.2%
same,AC50,[1],"0.092 µM [falling, full curve, poor fit]"
COc1ccc2c(c1)[nH]c1c(=O)n(CCCn3ccnc3)cnc12,cell number change,,39.3%
same,AC50,[1],"32.6 µM [rising, single point]"
O=C1N=C(N2CCCCC2)S/C1=C\c1cn[nH]c1-c1ccccc1,cell number change,,16.2%
same,AC50,[2],"16.4 µM [rising, partial curve]"
O=C(CSc1nnc(-c2ccc(Cl)cc2)n1-c1ccc(Cl)cc1)N/N=C/c1ccccc1C(=O)O,cell number change,,12.2%
CCN1CCCC1CNCc1ccc(Cl)cc1Cl (stereo unspecified),AC50,[2],"29.1 µM [falling, partial curve]"
CCOC(=O)C1CCCn2c1nc1sc3c(c1c2=O)CCCC3 (stereo unspecified),AC50,[1],"5.8 µM [falling, partial curve, poor fit]"
same,AC50,[2],"4.11 µM [falling, single point]"
CC1CCC(NS(=O)(=O)c2ccc(N3CCCC3=O)cc2)CC1 (stereo unspecified),cell number change,,-19.4%
same,AC50,[1],"0.00517 µM [rising, full curve, poor fit]"
CCC(C)c1ccc(OCC(=O)Nc2ccc3[nH]c(=O)[nH]c3c2)cc1 (stereo unspecified),cell number change,,-8.02%
same,AC50,[2],"29.1 µM [rising, single point]"
Cc1[nH]nc(-c2ccc(OCc3cnn(-c4ccccc4)c3)c(C)c2O)c1Oc1ccccc1,cell number change,,-12.6%
same,AC50,[2],"29.1 µM [falling, single point]"
CCCCOc1ccc(C(=O)NCC(=O)NCc2ccncc2)cc1,cell number change,,15.3%
same,AC50,[2],"32.6 µM [rising, single point]"
O=C(NN=C1CCCC1)c1[nH]c2ccc(Br)cc2c1-c1ccccc1,cell number change,,-55.2%
same,AC50,[1],"29.1 µM [falling, single point]"
same,AC50,[2],"29.1 µM [falling, single point]"
Cc1ccc(Nc2ccc(C(=O)N3CCCC3)cn2)c(C)c1,cell number change,,43.5%
same,AC50,[1],"16.4 µM [rising, single point]"
COc1ccc(N=C2SC(C(=O)N3CCN(c4ccc([N+](=O)[O-])cc4)CC3)CC(=O)N2C)cc1 (stereo unspecified),cell number change,,4.78%
CC[C@H](C)[C@H](NC(N)=O)C(=O)NCCc1ccc(Cl)cc1,cell number change,,-21.5%
C=CCNC(=O)C1CC(=O)N(c2ccc(OCC(=O)Nc3c(C)cccc3C)cc2)C1 (stereo unspecified),cell number change,,13.2%
COc1cccc(C(=O)Nc2cc(OC)ccc2NC(=O)c2ccco2)c1,cell number change,,-0.293%
same,AC50,[2],"18.4 µM [falling, single point]"
O=C(C[n+]1ccccc1)Nc1ccccc1[N+](=O)[O-],cell number change,,2.47%
same,AC50,[2],"8.2 µM [rising, partial curve]"
Cc1cccc(C)c1NC(=O)CSc1nnnn1C,cell number change,,25.4%
same,AC50,[2],"6.51 µM [rising, single point]"
O=C(O)C(Cc1ccccc1)N1Cc2ccccc2C1=O (stereo unspecified),cell number change,,-28.5%
same,AC50,[1],"3.26 µM [falling, single point]"
same,AC50,[2],"11.6 µM [falling, partial curve]"
COc1cccc(N2CCN(C(=O)c3cc4cc(Cl)ccc4[nH]3)CC2)c1,cell number change,,37.3%
same,AC50,[1],"29.1 µM [rising, single point]"
Cc1cc(C)nc(Nc2cc([N+](=O)[O-])ccc2C)n1,cell number change,,50.8%
same,AC50,[1],"20.6 µM [rising, single point]"
Cc1c(C(c2cccs2)c2c(C)n(C)n(-c3ccccc3)c2=O)c(=O)n(-c2ccccc2)n1C,cell number change,,-20.9%
same,AC50,[2],"29.1 µM [falling, single point]"
Cc1cc(C)cc(Nc2ncc3c(n2)CC(c2ccco2)CC3=O)c1 (stereo unspecified),cell number change,,-84.9%
same,AC50,[1],"29.1 µM [falling, single point]"
same,AC50,[2],"18.4 µM [rising, single point]"
CCN1C(=O)[C@H]2[C@@H](c3ccc(C)cc3)N3C(=O)N(c4cccc(Cl)c4)C(=O)[C@@]3(CC)[C@H]2C1=O,cell number change,,-15.4%
CCC1CCc2sc(C(=O)NNC(=O)c3ccncc3)cc2C1 (stereo unspecified),cell number change,,30.5%
same,AC50,[1],"16.4 µM [rising, single point]"
N#C/C(=C\c1ccc(-c2ccc(C(=O)O)cc2)o1)C(=O)NCC1CCCO1 (stereo unspecified),cell number change,,-70.6%
same,AC50,[1],"20.6 µM [falling, single point]"
Cn1cnc2cc(NC(=O)c3ccco3)ccc21,cell number change,,-11.8%
Cc1ccc(S(=O)(=O)NC(C)(C)CSc2ccccn2)cc1,cell number change,,22.3%
CC(=O)Nc1ccc(Nc2ccc([N+](=O)[O-])cn2)cc1,cell number change,,18.9%
same,AC50,[2],"3.66 µM [rising, single point]"
CCN(CC)CC(=O)NCC1(c2ccccc2)CCOCC1,AC50,[2],"5.17 µM [rising, partial curve]"
CCCCn1c(N)c(N(CCOC)C(=O)C2CC(=O)N(Cc3ccco3)C2)c(=O)[nH]c1=O (stereo unspecified),cell number change,,3.51%
same,AC50,[1],"7.31 µM [falling, partial curve, poor fit]"
COc1ccc(C(=O)Nc2nc3ccc(OC)cc3s2)cc1,cell number change,,-47.5%
same,AC50,[1],"13 µM [falling, partial curve, poor fit]"
same,AC50,[2],"6.51 µM [falling, single point]"
CCOC(=O)c1c(C)[nH]c(N=Nc2cccc(OC)c2)c1C,cell number change,,-37.2%
same,AC50,[1],"13 µM [falling, single point]"
same,AC50,[2],"29.1 µM [falling, single point]"
COc1cccc(CNS(=O)(=O)c2cc(Br)cc3c2N(C(C)=O)C(C)C3)c1 (stereo unspecified),cell number change,,87.3%
same,AC50,[1],"9.2 µM [rising, partial curve]"
same,AC50,[2],"16.4 µM [rising, partial curve]"

# Pulled one by one from the list above:
structure (smiles),measurement,setting,value
COc1cccc(CNS(=O)(=O)c2cc(Br)cc3c2N(C(C)=O)C(C)C3)c1 (stereo unspecified),cell number change,,87.3%
Cc1cc(C)cc(Nc2ncc3c(n2)CC(c2ccco2)CC3=O)c1 (stereo unspecified),AC50,[2],"18.4 µM [rising, single point]"
Cc1[nH]nc(-c2ccc(OCc3cnn(-c4ccccc4)c3)c(C)c2O)c1Oc1ccccc1,cell number change,,-12.6%
CCCCOc1ccc(C(=O)NCC(=O)NCc2ccncc2)cc1,cell number change,,15.3%

# Reference: PubChem BioAssay AID2685 (National Center for Advancing Translational Sciences (NCATS), 2010)
